For at least one compound, name, drawing or mass did not settle the structure.
Tests used:
HUVECs = assay: HUVEC Matrigel invasion chamber assay; settings: positive control, 24 hours, 5% FCS
[1] = tested on: human retinal endothelial cells; assay: Actin stress fiber formation, VEGF (Example 10); type: cell-based; settings: LY294002 10 μM, 30 minutes before VEGF 25 ng/ml
Procedure: . […] To counter-stain for nuclei, 100 μl of a 3 μM DAPI (4,6-diamidino-2-phenylindole, dilactate (Invitrogen)) solution was added to each well. After 5 minutes, the cells were washed two times with 100 μl PBS.

[2] = tested on: human retinal endothelial cells; assay: Actin stress fiber formation, TNFα (Example 9); settings: TNFα 50 ng/ml; danazol 0.1 μM or 10 μM, LY294002 10 μM; 30 minutes

## O=c1cc(N2CCOCC2)oc2c(-c3ccccc3)cccc12 [LY294002]
HUVECs
  effect on cell invasion: almost complete attenuation of cell invasion
[1]
  change of VEGF stress fiber pattern: prevented the strong stress fiber development seen with VEGF and exhibited diffuse staining
[2]
  stress fiber development with TNFα: decreased the number of cells exhibiting stress fiber development with TNFα

From US10058562B2, “Methods of treatment of diseases” (Ampio Pharmaceuticals, Inc., priority 2012, dated 2018)
